Among all 300,000 compounds or so, about 5,400 (1.8%) were called active. Inconclusive means that the source gave no clear call. Such entries were picked first, then a sample of the others. The call rests on the fitted dose curve; tested in HEK293 cells. Potencies beside an inconclusive call are fits to weak or partial responses and may not hold up.
Assay: qHTS for inhibitors of binding or entry into cells for Marburg Virus
Conditions: Marburg virus pseudotyped entry inhibition, cell reporter; series mostly up to 37.8 µM
Potency means the concentration at half of the fitted maximal effect.

| SMILES | Potency |
| --- | --- |
| COc1cc(C(=O)O/N=C2/C=C(C)C(=O)C=C2C)cc(OC)c1OC | inactive |
| COCCn1c(CN2CCN(C(c3ccccc3)c3ccccc3)CC2)nc2c1c(=O)n(C)c(=O)n2C | inactive |
| CN(C)CCCNc1c2ccccc2nc2ccccc12 | active: 5.62 µM |
| CCOC(=O)C1(Cc2cccc(OC)c2)CCN(C/C=C/c2ccccc2)CC1 | active: 7.94 µM |
| COc1ccc2oc(C(=O)OCC(=O)N(C)CC(=O)Nc3ccc(F)cc3)c(C)c2c1 | inactive |
| CCc1ccc(S(=O)(=O)c2cn(C)c3ccc(C)cc3c2=O)cc1 | inactive |
| O=C(CSc1ncc(-c2ccccc2)[nH]1)Nc1cccc(O)c1 | inactive |
| COCC(=O)Nc1ccc(F)cc1 | inconclusive: 1.12 µM [activator, full curve, poor fit] |
| CC1(C)CC(=O)C2=C(C1)N(c1ccc(F)cc1)C(=O)C2(O)C(F)(F)F (configuration not stated) | inactive |
| C[C@]12CCC3C(CC[C@@H]4C[C@@H](O)CC[C@]34C)C1CC[C@@H]2O (some centres not stated) | inconclusive: 6.31 µM [activator, single point] |
| O=C(NCCCn1ccnc1)c1cc2ccccc2oc1=O | inactive |
| Cc1nc(N2CCN(Cc3nc4ccccc4[nH]3)CC2)c2oc3ccccc3c2n1 | inactive |
| CNC(=S)Nc1cccc(-c2cnc3ccccc3n2)c1 | inconclusive: 6.31 µM [activator, single point] |
| CCOC(=O)c1ccc(N2C(=O)c3n[nH]c(C)c3C2c2ccc(CC)cc2)cc1 (configuration not stated) | inconclusive: 3.16 µM [inhibitor, partial curve, poor fit] |
| Oc1ccc(C2CNCc3sccc32)cc1O (configuration not stated) | inconclusive: 35.5 µM [inhibitor, single point] |
| CCCNC(=O)CSc1nccn1Cc1ccco1 | inconclusive: 5.62 µM [activator, single point] |
| CCc1c(-c2ccccc2)nc2sc3c(c2c1N)CCCC3 | inconclusive: 3.16 µM [inhibitor, partial curve, poor fit] |
| CC(C)Cn1c2ccccc2c2cc(C(=O)O)ccc21 | inactive |
| COc1cc(NC(=S)N2CCc3ccccc3C2)cc(OC)c1 | inconclusive: 35.5 µM [inhibitor, single point] |
| CC(=O)Nc1ccc(S(=O)(=O)NNC(=O)COc2cccc3ccccc23)cc1 | inconclusive: 15.8 µM [activator, single point] |
| O=C(c1ccco1)n1nc(NCc2ccccc2)nc1NCc1ccccc1 | inactive |
| Cc1ccc(/C(O)=C2\C(=O)C(=O)N(Cc3cccnc3)C2c2ccccc2[N+](=O)[O-])cc1 (configuration not stated) | inconclusive: 3.16 µM [activator, partial curve, poor fit] |

Copied from above (2 entries):

| SMILES | Potency |
| --- | --- |
| O=C(NCCCn1ccnc1)c1cc2ccccc2oc1=O | inactive |
| Cc1nc(N2CCN(Cc3nc4ccccc4[nH]3)CC2)c2oc3ccccc3c2n1 | inactive |

From PubChem BioAssay AID540276 (National Center for Advancing Translational Sciences (NCATS), 2011)
